{"source": "PubChem BioAssay AID1259276 (Sanger Institute, 2017)", "screen": "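Kinome-wide search for kinases colon cancer cells need, and for drug partners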 (primary screen)", "cell system": "human C2BBe1 colorectal cancer cells", "knock-down reagent": "siRNA pool against human genes", "treatment": "DMSO vehicle, or one anchor drug: BYL719 at 1 µM, cetuximab at 5 µg/ml, or trametinib at 10 nM; exposure length not stated", "measurement": "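Viability after knock-down relative to non-targeting siRNA controls, averaged across replicates, given as ratio and control-derived robust z-score, with per-drug synergy scores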", "reading the numbers": "viability robust z-score, siRNA alone and viability vs control, siRNA alone: higher = more viable cells after knock-down", "active means": "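a siRNA pool tested without drug is essential if its viability robust z-score falls under -3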", "meaning of the calls": "active = essential (siRNA alone); inactive = no change (siRNA alone)", "note": "In all, the deposit lists 794 reagents; below is a random part of them. In the full data, 24 (3%) are marked active. 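Calls come only from the siRNA-alone arm; drug synergy scores do not affect them.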 No viability above 1 is reported: the scale is capped. Further read-outs or replicates are left out here. Not stated in the record: the amount of reagent, the time to read-out."}
{"gene symbol": "RUNX1 (GeneID 861)", "viability robust z-score, siRNA alone": 0.472, "viability vs control, siRNA alone": 1, "call": "inactive"}
{"gene symbol": "LCK (GeneID 3932)", "viability robust z-score, siRNA alone": 0.0535, "viability vs control, siRNA alone": 0.974, "call": "inactive"}
{"gene symbol": "STK39 (GeneID 27347)", "viability robust z-score, siRNA alone": 0.472, "viability vs control, siRNA alone": 1, "call": "inactive"}
{"gene symbol": "DIS3 (GeneID 22894)", "viability robust z-score, siRNA alone": 0.191, "viability vs control, siRNA alone": 0.982, "call": "inactive"}
{"gene symbol": "CALM1 (GeneID 801)", "viability robust z-score, siRNA alone": 0.472, "viability vs control, siRNA alone": 1, "call": "inactive"}
{"gene symbol": "PTPRU (GeneID 10076)", "viability robust z-score, siRNA alone": 0.332, "viability vs control, siRNA alone": 0.991, "call": "inactive"}
{"gene symbol": "RPS6KL1 (GeneID 83694)", "viability robust z-score, siRNA alone": 0.472, "viability vs control, siRNA alone": 1, "call": "inactive"}
{"gene symbol": "MARK4 (GeneID 57787)", "viability robust z-score, siRNA alone": 0.472, "viability vs control, siRNA alone": 1, "call": "inactive"}
{"gene symbol": "TWF2 (GeneID 11344)", "viability robust z-score, siRNA alone": 0.472, "viability vs control, siRNA alone": 1, "call": "inactive"}

A portion from the list above, for reference:
{"gene symbol": "DIS3 (GeneID 22894)", "viability robust z-score, siRNA alone": 0.191, "viability vs control, siRNA alone": 0.982, "call": "inactive"}
{"gene symbol": "CALM1 (GeneID 801)", "viability robust z-score, siRNA alone": 0.472, "viability vs control, siRNA alone": 1, "call": "inactive"}

The listing continues.
{"gene symbol": "ACVR1B (GeneID 91)", "viability robust z-score, siRNA alone": 0.472, "viability vs control, siRNA alone": 1, "call": "inactive"}
{"gene symbol": "CERK (GeneID 64781)", "viability robust z-score, siRNA alone": 0.472, "viability vs control, siRNA alone": 1, "call": "inactive"}
{"gene symbol": "HK1 (GeneID 3098)", "viability robust z-score, siRNA alone": 0.472, "viability vs control, siRNA alone": 1, "call": "inactive"}
{"gene symbol": "MAP3K2 (GeneID 10746)", "viability robust z-score, siRNA alone": 0.342, "viability vs control, siRNA alone": 0.992, "call": "inactive"}
{"gene symbol": "IP6K1 (GeneID 9807)", "viability robust z-score, siRNA alone": 0.472, "viability vs control, siRNA alone": 1, "call": "inactive"}
{"gene symbol": "PIKFYVE (GeneID 200576)", "viability robust z-score, siRNA alone": 0.472, "viability vs control, siRNA alone": 1, "call": "inactive"}
{"gene symbol": "GATA3 (GeneID 2625)", "viability robust z-score, siRNA alone": 0.472, "viability vs control, siRNA alone": 1, "call": "inactive"}
{"gene symbol": "MECOM (GeneID 2122)", "viability robust z-score, siRNA alone": 0.472, "viability vs control, siRNA alone": 1, "call": "inactive"}
{"gene symbol": "SYNCRIP (GeneID 10492)", "viability robust z-score, siRNA alone": 0.472, "viability vs control, siRNA alone": 1, "call": "inactive"}
{"gene symbol": "CSNK1A1L (GeneID 122011)", "viability robust z-score, siRNA alone": 0.472, "viability vs control, siRNA alone": 1, "call": "inactive"}
